The values that follow come from PubChem BioAssay AID1508600 (Functional Genomics Laboratory (NCATS/FGL), 2020).

Among all 53,000 sequences or so, about 3,700 (7%) were called active.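 The calls were made as follows: active = gene knockdowns whose robust z-score for IL-1 alpha signal is at least 2 or at most -2, so actives lie on both sides; inactive = the rest.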 The list shows a part of the results.

A short description of the test: Components of the Cytosolic LPS Sensing Pathway: Gene Identification via Genome-wide siRNA Screen.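 Also: robust z of the log signal after scaling to non-targeting control siRNA wells of the plate.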 The note with it: RAW264.7 macrophages, IL-1a HTRF, actives lie on both sides, screened at 100 nM (by protocol), cells primed 5 h with Pam3CSK4 first. The method, boiled down:
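Supernatant IL-1a by HTRF from RAW264.7 cells primed with Pam3CSK4 (5 hours) and transfected with LipidA (24 hour) after 48h siRNA knockdown at 100 nM; cell viability checked with CellTiter-Glo.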
A general note: Time-resolved FRET reads energy transfer from a long-lived donor to a nearby acceptor.
Take CCAUACUGAACGCGCUUCUTT against Klhl5: the z-score was inactive: -1.31.

Consider CGCAAUUUUGAACAUGUGUTT against Kctd7, for which the z-score was inactive: 0.0653.

In the case of GCGAUAUGCAGAGAAGCGGTT against Prpf8, the z-score was inactive: -1.63.

Take GGAGGGAAAUUUGGGACUUTT against Setd6: the z-score was inactive: 1.14.

Regarding GGCUACUGGGCUUGUUGAATT against Cyp2d22, the z-score is inactive: 0.919.

As for GCUCCCAUUUCGUAGGAAATT against Zfp879, the z-score is inactive: -1.47.

Turning to GGAAGAGAGAGAGCUUAUUTT against Abca6, the z-score is inactive: -1.44.

Take GGGACUUUGAGAAAAUCUUTT against Scgn: the z-score is inactive: 1.87.

Take GGUGGUUACCAUAGCUGGUTT against Arid2: the z-score was inactive: 1.67.

For the sequence CCUCACUUCAGCAAAACCATT against Tanc1, the z-score is inactive: -1.8.

For CCAAUAUUCAGUCCUAUAUTT against Kcnip3, the z-score was inactive: -0.918.

Turning to GGAAAAAAAAAACUGUCUGTT against Pitpnm2, the z-score is inactive: 0.193.

Regarding GGCUGAAGCAGUUUCAUUUTT against Car5a, the z-score was inactive: 0.336.

Turning to GGGACGUAAAUCAAAUGAATT against P2ry12, the z-score is inactive: 0.096.

With GGAUCUAUAAGGACUACAUTT against Bmp7, the z-score is active: 4.01.

As for CCUGUUAAGAUCAAUCUCATT against Ldhc, the z-score was inactive: 0.48.

As for GGUGCUAAGGAGAAGAAGCTT against Plagl2, the z-score was inactive: 0.275.

GGAGAAUGAAGAUGAAUGUTT against Patl2: the z-score was inactive: -0.872.

For GGCUUGACAACCUCAUGUCTT against Rnf41, the z-score was inactive: 0.716.

CGUGUGCCACUAAUUGGCUTT against Urod: the z-score was inactive: 0.852.

Consider GGACACAUGGAAGAGGAUUTT against Rnf139, for which the z-score was inactive: 0.513.

In the case of GCCGACAUCUUUGCUCAGATT against Tmco4, the z-score was inactive: 1.51.

As for GGCAAAAUAAAGGAUAGGATT against Prpf4b, the z-score is inactive: -0.626.

Take GGAAUUCGAGAAGUAACUATT against Dbt: the z-score was inactive: 0.0571.

As to CCAUCCACAGCAGUCCCAATT against Olfr530, the z-score was inactive: -0.104.

Regarding GGGAUUCCCAUCAUUGUGGTT against Gmpr, the z-score is inactive: -0.785.

Regarding CCUGACACUUUCCUUACUUTT against Dbndd2, the z-score is inactive: -0.586.

As to GGAUGAAAUCGCCAUAUGUTT against Snrnp48, the z-score was inactive: -1.89.

For the sequence GCUAGCAGACCUAAACAAGTT against Scap, the z-score is inactive: -0.475.

Regarding GCCGGUUCAACAUCUAAUATT against Fgl2, the z-score was inactive: -0.583.

Turning to GGACAACACCCUGAUGAUATT against Vmn1r208, the z-score is inactive: -1.07.

Consider CCUAUUUUUCUACUAACUGTT against Pkp2, for which the z-score was inactive: 1.12.

For GGAGACCAUGAAUUUAAUGTT against Cmtr1, the z-score is inactive: 0.476.

On to GCAGGUGGUUGUUUCUUAGTT against Slco2a1, for which the z-score was inactive: -0.202.

For the sequence GCAAUGCUCUAAUCCACUCTT against Npas4, the z-score was inactive: 0.654.

For the sequence GGCCAUCAGAGAAAAGAUATT against Akr1d1, the z-score was inactive: -0.597.

GGAAAGACUUUGAAACUUUTT against Dach2: the z-score is inactive: 0.121.

Consider GCCAAAUUGUCCCGGGCAUTT against Usp39, for which the z-score is inactive: 0.457.

On to GGAUUCUCGGUGAAAAAGATT against Fastkd3, for which the z-score is inactive: 1.78.

On to GGCUUUAACAUCAAAGCAATT against Mgarp, for which the z-score is inactive: 0.0459.

As for GGAUCAAGCAAACUUUGAUTT against Gm9801, the z-score is inactive: -0.77.

Regarding GGUCCUCUAAAGAAUAAAGTT against Cela3b, the z-score is inactive: 0.541.

In the case of GGAUUAUUUCCUUUCUUUGTT against Lmntd1, the z-score is inactive: 1.27.

Consider GGCACAAAGCGUAUACUGATT against Ugt2a2, for which the z-score is inactive: -1.65.

For the sequence CCCUAUACUGCCCGAAUCUTT against Peli3, the z-score was inactive: -1.3.

For the sequence CGUGAUCGGGUACUGAUGUTT against Bscl2, the z-score is inactive: 1.2.

Take GGACAUUAGGGAAGUGCCUTT against Olfr281: the z-score is inactive: -0.0117.

As to GCCUUUGCAUGGCAGUCUATT against Zfp825, the z-score was inactive: -0.716.

As for GCAUUUCGAAGUGCCCUUGTT against Gpr146, the z-score is inactive: 1.22.

As to GCCCAACUGCUACCUGUUUTT against Mansc1, the z-score is inactive: -1.61.

GCAUGCAGUCAAGUCAACGTT against Pnoc: the z-score was inactive: -0.609.

As to GCCCAUGACCAGUUCAAGUTT against Actn4, the z-score was inactive: 0.63.

Turning to GCCUCAACAUGGAAUGUCGTT against Ppard, the z-score was inactive: -0.753.

In the case of GGUUUUGCACAGCAUUGGUTT against Efna1, the z-score was inactive: -1.02.

Regarding CGAUGUGACUAUUUGUUGATT against Snx11, the z-score is inactive: 0.425.

With CCAGAAGUUAGAACAGUUCTT against Rp9, the z-score is inactive: 1.49.

On to CGACCUGAAAUCUCAAGUUTT against Clec3a, for which the z-score is inactive: 0.438.

In the case of GGAGUUCGACAUUAGCGGATT against Ehf, the z-score is inactive: 0.0965.

Consider CGACAUAGCUUCUGUACUGTT against Spaca9, for which the z-score is inactive: -1.42.

GGGCUGAGGAGAAAAUGCATT against Meg3: the z-score was active: -2.37.

As to GCCAAUAUGCUUAAUUAGATT against Il7, the z-score was inactive: -0.0442.

On to GGAUUUUGUCGGCAAGGCCTT against Ap5s1, for which the z-score is active: -3.12.

For GGGAUGGCCAUAGAACAGATT against Echdc2, the z-score is inactive: -0.211.

As for GGAAGAUUUAUUUCACGGATT against Apmap, the z-score was inactive: -0.0913.

Consider GGGUGAUGACGCAAUAUGCTT against Kcnma1, for which the z-score is inactive: -0.121.

For GGUACUCAACAUGAUGCCCTT against Nudt16l1, the z-score was inactive: -0.36.

Regarding CCUCGUGUGGAAUUUGAUCTT against Mug1, the z-score is inactive: -0.886.

As for GGCUGAGGCAGCACUUACUTT against Jph3, the z-score is inactive: -1.25.

For GCCACUUAAUGUCACUUUATT against Bag2, the z-score is inactive: 0.652.

On to GGGAAUCACCCUGAGAAAGTT against Ccndbp1, for which the z-score is inactive: -0.269.

GCCAUAGGAAAUUGCUAUUTT against Triqk: the z-score was inactive: 0.38.

Regarding AAAGCUUAUAACCAUCAACTT against AA467197, the z-score is inactive: -0.704.

On to UCUACAAGUGGAUCACGGATT against Foxj1, for which the z-score was inactive: 1.89.

Take CCCAGAGACCUUUAUCAAUTT against Fbxl14: the z-score was inactive: -0.524.

For GGCAGUGUGAAGACAUUGATT against Scube1, the z-score is inactive: -0.318.

Regarding GGCUGUUACAACAAAGGAATT against Lin9, the z-score was inactive: 0.0959.

As to GGACUUCACUGAAGAUUCATT against Acbd4, the z-score was inactive: -0.0667.

For the sequence CCUUGUUUCUAUCAAGACUTT against Scamp1, the z-score was inactive: -0.00777.

With CCCUCACAGUAACCUGUCGTT against Espl1, the z-score is active: -2.56.

In the case of GGGUGCAAGUCGUUUCUCUTT against Uggt1, the z-score is inactive: -1.89.

Turning to GGAAGGAAACAGAAAAGUATT against Gen1, the z-score is inactive: -0.835.

Consider GCCUGUACAUCAUGCGUGUTT against Rprm, for which the z-score was inactive: -0.00211.

On to GGAAAGAUUUUCAUUUGAGTT against Zmat1, for which the z-score is inactive: 0.348.

As for GCAUUACCUGUAGUCUAUGTT against Itln1, the z-score is inactive: 1.34.

With GGAGUAUGCGUACCUGAAGTT against Nr0b2, the z-score was inactive: -0.903.

GGAACCAUAAAUGUCACUUTT against Mgat4c: the z-score is inactive: 0.273.

For GGACCUAAGGGAUCUAUUGTT against Col5a3, the z-score is inactive: 0.000962.

In the case of “CCUCUAGCUCCUAACCAUUTT against 6030498E09Rik”, the z-score was inactive: -1.18.

In the case of CCUAUACCCUGGAAAGGCATT against Pigz, the z-score is inactive: 1.59.

Turning to GCCGCUUGGAGGAUAUCUATT against Wdr91, the z-score was inactive: -1.95.

As to GGGUCAAUCUAAAUAUGUGTT against Apoo, the z-score is inactive: 1.53.

Take CCUGAUGUGAAGAAAUCAATT against Akap10: the z-score is inactive: 0.851.

Take GGAAGUUUUGAUCACGAUUTT against Terb1: the z-score was inactive: 0.97.

Turning to GCCAAAAACGGGCAUAUUGTT against Fech, the z-score is inactive: -1.12.

As for GGCUUCUUUUUAAAAGUAGTT against Pcid2, the z-score was inactive: -1.28.

With GGAGAGAUGUAGAAUAUGGTT against Marchf2, the z-score was inactive: 0.502.

GGAGAGACCACCUUUUGCUTT against AI837181: the z-score is inactive: 0.596.

For GGAACUUAUAUCUGCGCCATT against Gprin3, the z-score is inactive: 0.868.

In the case of GGAAAUGAGUGAAGAUGAATT against Cdk11b, the z-score is inactive: -0.186.

Turning to GCCGAAGAGGACAUCAUUGTT against Auts2, the z-score was inactive: 1.46.

For the sequence GGUCAAAUAGGGAACCUAGTT against Gm4827, the z-score was inactive: 0.752.

On to GGAAGAGUGUCUAAAUGUATT against Cbwd1, for which the z-score was inactive: 0.849.

In the case of GGCUGUGGGUCUAUUCUACTT against Kdm8, the z-score was inactive: 0.288.

For GGAGAACUGUCAGAACGAGTT against Gpx2, the z-score is inactive: -1.56.

Take GGAAUGGAGAGAUCAGUAGTT against Cox7b: the z-score was inactive: 0.45.

GGUAUUUCACAAUCUUCUCTT against Pmpca: the z-score is inactive: -0.684.

On to GGCAGACCGUGUUAAAAUGTT against Dnajc2, for which the z-score is inactive: -0.481.
